In patent publication US6605628B1, “Method of using 5-(arysulfonyl)-, 5-(arylsulfanyl)-and 5-(arylsulfanyl)thiazolidine-2,4-diones for inhibition of farnesyl-protein transferase” (Wyeth Holdings Corporation, priority 2001, dated 2003):
At least one structure is not confirmed: it was looked up by name or label, or the drawing left a doubt.

Tested on: Rat-2 fibroblasts transformed by oncogenic H-ras
Test: in vivo, Rat-2 fibroblasts transformed by oncogenic H-ras
Parameters: species or system rats
Details: 100 mg/kg i.p. for 11 days; day 11

Cc1ccc(S(=O)(=O)C2(CCCC#Cc3ccc(Cl)cc3)SC(=O)NC2=O)cc1 (stereo not shown) [Example 103, 5-[5-(4-Chlorophenyl)pent-4-ynyl]-5-(p-tolylsulfonyl)thiazolidine-2,4-dione]
% T/C: No efficacy at this
